{"source": "paper PMC6697806", "key": {"[1]": {"target": "T1, TMEM203 V51X in the Renilla reporter system (UniProt Q8R235)", "T1 sequence": "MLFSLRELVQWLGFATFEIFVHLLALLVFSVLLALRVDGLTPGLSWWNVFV", "assay": "split reporter; Renilla fragment PCA (NanoBit 1.1 small and 2.1 large fragments), HEK293T cells cotransfected, Nano-Glo live cell luciferase assay 24 h posttransfection; also after DMXAA (50 µg/mL; association enhanced) or 2′3′-cGAMP (10 µg/mL; complex reduced with time)"}, "1.1C-Tmem203 [2]": {"target": "T2, 1.1C-Tmem203 (UniProt Q8R235)", "T2 sequence": "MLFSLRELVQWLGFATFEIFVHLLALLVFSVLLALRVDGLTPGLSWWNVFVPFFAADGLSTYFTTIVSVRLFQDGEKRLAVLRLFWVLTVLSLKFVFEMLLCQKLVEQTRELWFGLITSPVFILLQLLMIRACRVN", "assay": "split reporter; Renilla fragment PCA (NanoBit 1.1 small and 2.1 large fragments), HEK293T cells cotransfected, Nano-Glo live cell luciferase assay 24 h posttransfection; also after DMXAA (50 µg/mL; association enhanced) or 2′3′-cGAMP (10 µg/mL; complex reduced with time)"}, "1.1C-Tmem203 [3]": {"target": "T2, 1.1C-Tmem203", "assay": "split reporter; Renilla fragment PCA (1.1 on TMEM203, 2.1 on STING) in HEK293T cells with an increasing dose of STIM1 expression vector; relative luciferase activity 24 h posttransfection"}, "Flag-Tmem203": {"target": "T3, Flag-Tmem203 (UniProt Q8R235)", "T3 sequence": "T2 sequence", "assay": "co-IP; HEK293T cells transfected with the tagged constructs; complexes immunoprecipitated with anti-FLAG-coated beads and blotted for Myc or HA and FLAG"}, "[4]": {"target": "T4, TMEM203 with a C-terminal Venus PCA tag (UniProt Q8R235)", "T4 sequence": "T2 sequence", "assay": "split reporter; Venus YFP fragment complementation assay (PCA; V1 and V2 fragments), HEK293T cells cotransfected, Venus fluorescence detected by flow cytometry (mean fluorescence intensity)"}, "[5]": {"target": "T5, Tmem203 tagged at its N terminus with the V1 fragment of Venus yellow fluorescent protein (UniProt Q8R235)", "T5 sequence": "T2 sequence", "assay": "split reporter; Venus YFP fragment complementation assay (PCA; V1 and V2 fragments), HeLa cells cotransfected, Venus fluorescence visualized by microscopy"}, "[6]": {"target": "T5, Tmem203 tagged at its N terminus with the V1 fragment of Venus yellow fluorescent protein", "assay": "split reporter; Venus YFP fragment complementation assay (PCA; V1 and V2 fragments), HEK293T cells cotransfected, Venus fluorescence detected by flow cytometry (mean fluorescence intensity)"}, "V2-tagged Tmem203 [7]": {"target": "T6, V2-tagged Tmem203 (UniProt Q8R235)", "T6 sequence": "T2 sequence", "assay": "split reporter; Venus YFP fragment complementation assay (PCA; V1 and V2 fragments), HEK293T cells cotransfected, Venus fluorescence detected by flow cytometry (mean fluorescence intensity)"}, "V2_V51X-Tmem203": {"target": "T7, V2_V51X-Tmem203 (UniProt Q8R235)", "T7 sequence": "T1 sequence", "assay": "split reporter; Venus YFP fragment complementation assay (PCA; V1 and V2 fragments), HeLa cells cotransfected, Venus fluorescence visualized by microscopy"}, "V2-tagged Tmem203 [8]": {"target": "T6, V2-tagged Tmem203", "assay": "split reporter; Venus YFP fragment complementation assay (PCA; V1 and V2 fragments), HeLa cells cotransfected, Venus fluorescence visualized by microscopy"}}, "note": "These are yes or no findings as the source states them, for the method shown. Binding seen in cells or lysates may run through a third protein. Binding can be weak; no strength is given. For part of these data: Where a sequence is shown, tags or fusion partners need not be part of it.", "data": [{"substance": "2.1N-Sting", "values": [{"measurement": "binding", "setting": "[1]", "result": "binds"}, {"measurement": "binding", "setting": "1.1C-Tmem203 [2]", "result": "binds"}, {"measurement": "binding", "setting": "1.1C-Tmem203 [3]", "result": "binds"}]}, {"substance": "HA-Sting WT", "values": [{"measurement": "binding", "setting": "Flag-Tmem203", "result": "binds"}]}, {"substance": "HA-Sting ΔCBD (domain or fragment)", "values": [{"measurement": "binding", "setting": "Flag-Tmem203", "result": "binds"}]}, {"substance": "HA-Sting ΔCTT (domain or fragment)", "values": [{"measurement": "binding", "setting": "Flag-Tmem203", "result": "binds"}]}, {"substance": "HA-Sting ΔTM (domain or fragment)", "values": [{"measurement": "binding", "setting": "Flag-Tmem203", "result": "binds weakly"}]}, {"substance": "Myc-Sting", "values": [{"measurement": "binding", "setting": "Flag-Tmem203", "result": "binds"}]}, {"substance": "STING with a C-terminal Venus PCA tag", "values": [{"measurement": "binding", "setting": "[4]", "result": "binds"}]}, {"substance": "Sting tagged at its N terminus with the V2 Venus fragment", "values": [{"measurement": "binding", "setting": "[5]", "result": "binds"}, {"measurement": "binding", "setting": "[6]", "result": "binds"}]}, {"substance": "V1 Sting ΔCTT (344A truncation) (domain or fragment)", "values": [{"measurement": "binding", "setting": "V2-tagged Tmem203 [7]", "result": "binds"}]}, {"substance": "V1_Sting WT", "values": [{"measurement": "binding", "setting": "V2_V51X-Tmem203", "result": "binds"}, {"measurement": "binding", "setting": "V2-tagged Tmem203 [8]", "result": "binds"}, {"measurement": "binding", "setting": "V2-tagged Tmem203 [7]", "result": "binds"}]}]}
